# Assay results as given in the supplement of paper PMC8728848.
# The list shows a part of the results.
# B1: NK2 (Sus scrofa) (peptide)
# chain: KILRGVCKKIMRTFLRRISKDILTGKK
# Legend:
# Experiment in all cases: glycan array binding signal (z-score within array); higher = stronger binding
# Details in all cases: glycan notation: IUPAC condensed, linker removed
# Fuc(a1-2)Gal = target: Fuc(a1-2)Gal
# Outline: (§1)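 From the Consortium for Functional Glycomics database, 3228 arrays were curated, keeping only those whose protein sequence was available. Binding is given as a within-array Z-score averaged across arrays sharing a protein sequence and across linkers. Negative Z-scores can be read as non-binding.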
# Fuc(a1-2)Gal(b1-3)GalNAc = target: Fuc(a1-2)Gal(b1-3)GalNAc
# Outline: as §1
# [1] = target: Fuc(a1-2)Gal(b1-3)GalNAc(a1-3)[Fuc(a1-2)]Gal(b1-4)Glc
# Outline: as §1
# [2] = target: Fuc(a1-2)Gal(b1-3)GalNAc(a1-3)[Fuc(a1-2)]Gal(b1-4)GlcNAc
# Outline: as §1
# [3] = target: Fuc(a1-2)Gal(b1-3)GalNAc(b1-3)Gal
# Outline: as §1
# [4] = target: Fuc(a1-2)Gal(b1-3)GalNAc(b1-3)Gal(a1-4)Gal(b1-4)Glc
# Outline: as §1
# [5] = target: Fuc(a1-2)Gal(b1-3)GalNAc(b1-4)[Neu5Ac(a2-3)]Gal(b1-4)Glc
# Outline: as §1
# Fuc(a1-2)Gal(b1-3)GlcNAc = target: Fuc(a1-2)Gal(b1-3)GlcNAc
# Outline: as §1
# [6] = target: Fuc(a1-2)Gal(b1-3)GlcNAc(b1-2)Man(a1-3)[Fuc(a1-2)Gal(b1-3)GlcNAc(b1-2)Man(a1-6)]Man(b1-4)GlcNAc(b1-4)GlcNAc
# Outline: as §1
# [7] = target: Fuc(a1-2)Gal(b1-3)GlcNAc(b1-2)Man(a1-3)[Fuc(a1-2)Gal(b1-3)GlcNAc(b1-2)Man(a1-6)]Man(b1-4)GlcNAc(b1-4)[Fuc(a1-6)]GlcNAc
# Outline: as §1
# [8] = target: Fuc(a1-2)Gal(b1-3)GlcNAc(b1-3)Gal(b1-4)Glc
# Outline: as §1
# [9] = target: Fuc(a1-2)Gal(b1-3)GlcNAc(b1-3)GalNAc
# Outline: as §1
# [10] = target: Fuc(a1-2)Gal(b1-3)GlcNAc(b1-3)[Fuc(a1-2)Gal(b1-3)GlcNAc(b1-6)]GalNAc
# Outline: as §1
# [11] = target: Fuc(a1-2)Gal(b1-3)GlcNAc(b1-3)[Fuc(a1-3)[Gal(b1-4)]GlcNAc(b1-6)]Gal(b1-4)Glc
# Outline: as §1
# [12] = target: Fuc(a1-2)Gal(b1-3)GlcNAc(b1-3)[Gal(b1-4)GlcNAc(b1-6)]Gal(b1-4)Glc
# Outline: as §1
# [13] = target: Fuc(a1-2)Gal(b1-3)GlcNAc(b1-3)[Neu5Ac(a2-6)Gal(b1-4)GlcNAc(b1-6)]Gal(b1-4)Glc
# Outline: as §1
# [14] = target: Fuc(a1-2)Gal(b1-3)GlcNAc6S
# Outline: as §1
# [15] = target: Fuc(a1-2)Gal(b1-3)[Fuc(a1-4)]GlcNAc
# Outline: as §1
# [16] = target: Fuc(a1-2)Gal(b1-3)[Fuc(a1-4)]GlcNAc(b1-2)Man(a1-3)[Fuc(a1-2)Gal(b1-3)[Fuc(a1-4)]GlcNAc(b1-2)Man(a1-3)]Man(b1-4)GlcNAc(b1-4)GlcNAc
# Outline: as §1
# [17] = target: Fuc(a1-2)Gal(b1-3)[Fuc(a1-4)]GlcNAc(b1-2)Man(a1-3)[Fuc(a1-2)Gal(b1-3)[Fuc(a1-4)]GlcNAc(b1-2)Man(a1-6)]Man(b1-4)GlcNAc(b1-4)GlcNAc
# Outline: as §1
# [18] = target: Fuc(a1-2)Gal(b1-3)[Fuc(a1-4)]GlcNAc(b1-2)Man(a1-3)[Fuc(a1-2)Gal(b1-3)[Fuc(a1-4)]GlcNAc(b1-2)Man(a1-6)]Man(b1-4)GlcNAc(b1-4)[Fuc(a1-6)]GlcNAc(b1-4)[Fuc(a1-6)]GlcNAc
# Outline: as §1
# [19] = target: Fuc(a1-2)Gal(b1-3)[Fuc(a1-4)]GlcNAc(b1-3)[Fuc(a1-3)[Gal(b1-4)]GlcNAc(b1-6)]Gal(b1-4)Glc
# Outline: as §1
# [20] = target: Fuc(a1-2)Gal(b1-3)[Fuc(a1-4)]GlcNAc(b1-3)[Gal(b1-4)GlcNAc(b1-6)]Gal(b1-4)Glc
# Outline: as §1
# [21] = target: Fuc(a1-2)Gal(b1-4)Fuc(a1-3)]GlcNAc(b1-2)Man(a1-3)[Fuc(a1-2)Gal(b1-4)[Fuc(a1-3)]GlcNAc(b1-2)Man(a1-6)]Man(b1-4)GlcNAc(b1-4)GlcNAc
# Outline: as §1
# Fuc(a1-2)Gal(b1-4)Glc = target: Fuc(a1-2)Gal(b1-4)Glc
# Outline: as §1
# Fuc(a1-2)Gal(b1-4)Glc6S = target: Fuc(a1-2)Gal(b1-4)Glc6S
# Outline: as §1
# Fuc(a1-2)Gal(b1-4)GlcNAc = target: Fuc(a1-2)Gal(b1-4)GlcNAc
# Outline: as §1
# [22] = target: Fuc(a1-2)Gal(b1-4)GlcNAc(b1-2)Man
# Outline: as §1
# [23] = target: Fuc(a1-2)Gal(b1-4)GlcNAc(b1-2)Man(a1-3)[Fuc(a1-2)Gal(b1-4)GlcNAc(b1-2)Man(a1-6)]Man(b1-4)GlcNAc(b1-4)GlcNAc
# Outline: as §1
# [24] = target: Fuc(a1-2)Gal(b1-4)GlcNAc(b1-2)Man(a1-3)[Fuc(a1-2)Gal(b1-4)GlcNAc(b1-2)Man(a1-6)]Man(b1-4)GlcNAc(b1-4)[Fuc(a1-6)]GlcNAc
# Outline: as §1
binder,measurement,setting,value
B1,glycan array binding signal (z-score),Fuc(a1-2)Gal,-0.603
same,glycan array binding signal (z-score),Fuc(a1-2)Gal(b1-3)GalNAc,-0.095
same,glycan array binding signal (z-score),[1],-0.176
same,glycan array binding signal (z-score),[2],-0.352
same,glycan array binding signal (z-score),[3],0.02
same,glycan array binding signal (z-score),[4],0.154
same,glycan array binding signal (z-score),[5],-0.01
same,glycan array binding signal (z-score),Fuc(a1-2)Gal(b1-3)GlcNAc,-0.652
same,glycan array binding signal (z-score),[6],0.452
same,glycan array binding signal (z-score),[7],-0.029
same,glycan array binding signal (z-score),[8],-0.039
same,glycan array binding signal (z-score),[9],-0.165
same,glycan array binding signal (z-score),[10],0.079
same,glycan array binding signal (z-score),[11],-0.252
same,glycan array binding signal (z-score),[12],0.47
same,glycan array binding signal (z-score),[13],-0.921
same,glycan array binding signal (z-score),[14],0.182
same,glycan array binding signal (z-score),[15],-0.178
same,glycan array binding signal (z-score),[16],0.762
same,glycan array binding signal (z-score),[17],1.93
same,glycan array binding signal (z-score),[18],-0.492
same,glycan array binding signal (z-score),[19],-0.045
same,glycan array binding signal (z-score),[20],-0.228
same,glycan array binding signal (z-score),[21],-0.345
same,glycan array binding signal (z-score),Fuc(a1-2)Gal(b1-4)Glc,-0.122
same,glycan array binding signal (z-score),Fuc(a1-2)Gal(b1-4)Glc6S,0.153
same,glycan array binding signal (z-score),Fuc(a1-2)Gal(b1-4)GlcNAc,-0.333
same,glycan array binding signal (z-score),[22],1.58
same,glycan array binding signal (z-score),[23],-0.016
same,glycan array binding signal (z-score),[24],-0.423

# A second format for part of the listing above.
binder | measurement | setting | value
B1 | glycan array binding signal (z-score) | [11] | -0.252
same | glycan array binding signal (z-score) | [12] | 0.47
